Five molecules from US20030166192A1 can be followed below.

Chains of the proteins cited; added tags and fusions are not shown.
UniProt O43353: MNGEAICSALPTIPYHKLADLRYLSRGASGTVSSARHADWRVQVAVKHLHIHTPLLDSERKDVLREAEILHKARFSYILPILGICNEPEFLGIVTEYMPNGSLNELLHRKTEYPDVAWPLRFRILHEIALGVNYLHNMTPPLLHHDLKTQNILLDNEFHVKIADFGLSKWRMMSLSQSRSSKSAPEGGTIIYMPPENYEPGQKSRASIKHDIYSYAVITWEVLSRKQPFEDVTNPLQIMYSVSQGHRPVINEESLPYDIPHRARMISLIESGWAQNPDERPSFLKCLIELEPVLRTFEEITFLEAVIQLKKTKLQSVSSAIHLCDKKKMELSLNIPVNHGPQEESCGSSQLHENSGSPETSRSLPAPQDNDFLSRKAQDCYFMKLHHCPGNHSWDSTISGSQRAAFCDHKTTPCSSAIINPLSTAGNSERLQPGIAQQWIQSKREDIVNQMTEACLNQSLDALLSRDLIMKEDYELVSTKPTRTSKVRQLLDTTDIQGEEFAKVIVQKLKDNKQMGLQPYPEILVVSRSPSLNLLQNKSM

Assay [1] deals with T1, T7-tagged ICE-Like (human) (UniProt P57730).
T1 sequence: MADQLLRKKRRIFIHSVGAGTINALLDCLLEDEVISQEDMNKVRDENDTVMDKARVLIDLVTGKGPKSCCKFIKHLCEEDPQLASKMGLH
Briefly: co-immunoprecipitation from cotransfected 293 T cells: IP anti-Flag, western blot anti-T7 [panel C]. On the technique in general: Immunoblotting shows a protein as a band on a membrane.

The target of assay [2] is T2, T7-tagged Pseudo-ICE (human) (UniProt Q5EG05).
T2 sequence: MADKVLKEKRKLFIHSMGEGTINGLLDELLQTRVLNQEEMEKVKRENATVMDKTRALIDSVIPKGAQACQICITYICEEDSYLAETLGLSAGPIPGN
Briefly: co-immunoprecipitation from 293 T cells, anti-Flag precipitation, anti-T7 western blot.

Assay [3] concerns the target Flag-tagged RICK (UniProt O43353). Briefly: co-immunoprecipitation from 293 T cells cotransfected with Flag-RICK, T7-Casp1C/A and rising amounts of T7-Pseudo-ICE: IP anti-Flag, western blot anti-T7 [panel B].
Assay [4] has the same target. As to the kind of experiment: co-immunoprecipitation from 293 T cells, anti-Flag precipitation, anti-T7 western blot.
The target of another assay is T3, ICE-Like (human) (UniProt P57730).
T3 sequence (chain, 35S-methionine label in the in vitro assay): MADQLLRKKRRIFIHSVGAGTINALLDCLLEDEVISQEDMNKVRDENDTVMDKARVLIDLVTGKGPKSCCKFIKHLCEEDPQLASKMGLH
Briefly: GST pull-down, 35S-labelled in vitro translated protein, autoradiography.

For the next assay, the target named is T4, Pseudo-ICE (human) (UniProt Q5EG05).
T4 sequence (chain, 35S-methionine label in the in vitro assay): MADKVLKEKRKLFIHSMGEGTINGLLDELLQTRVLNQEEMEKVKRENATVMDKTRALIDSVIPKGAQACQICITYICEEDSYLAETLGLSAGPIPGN
The assay is described as above.

For the next assay, the target named is RICK (UniProt O43353). Briefly: GST pull-down of 35S-labelled RICK (data not shown).
The target in assay [5] is T2, T7-tagged Pseudo-ICE (human). Briefly: co-immunoprecipitation from cotransfected 293 T cells: IP anti-Flag, western blot anti-T7 [panel C].
Assay [6] deals with T1, T7-tagged ICE-Like (human). Briefly: co-immunoprecipitation from 293 T cells, anti-Flag precipitation, anti-T7 western blot.

No constants are given. Whether binding was seen depends on the method and setting. In cells and extracts the contact can be indirect. Some entries that bind do so weakly or less than the wild type. Sequences can lack the tags named with a protein.

B1: Flag-tagged Pseudo-ICE (protein, not shown: small tags and cut ends)
chain: MADKVLKEKRKLFIHSMGEGTINGLLDELLQTRVLNQEEMEKVKRENATVMDKTRALIDSVIPKGAQACQICITYICEEDSYLAETLGLSAGPIPGN
In the case of B1, the binding result in assay [1] and in assay [2] was “binds” in each case.

B2: T7-tagged Pseudo-ICE (protein, not shown: small tags and cut ends)
chain: MADKVLKEKRKLFIHSMGEGTINGLLDELLQTRVLNQEEMEKVKRENATVMDKTRALIDSVIPKGAQACQICITYICEEDSYLAETLGLSAGPIPGN
With B2, the binding result with Flag-tagged RICK [3] and with Flag-tagged RICK [4] was “binds” throughout.

B3: GST-conjugated Pseudo-ICE (protein, not shown: a dimerising Fc or GST)
chain: MADKVLKEKRKLFIHSMGEGTINGLLDELLQTRVLNQEEMEKVKRENATVMDKTRALIDSVIPKGAQACQICITYICEEDSYLAETLGLSAGPIPGN
With B3, the binding result with ICE-Like (human), with Pseudo-ICE (human) and in the assay with RICK was “binds” throughout.

B4: Flag-tagged ICE-Like (protein, not shown: small tags and cut ends)
chain: MADQLLRKKRRIFIHSVGAGTINALLDCLLEDEVISQEDMNKVRDENDTVMDKARVLIDLVTGKGPKSCCKFIKHLCEEDPQLASKMGLH
With B4, the binding result in assay [5] and in assay [6] was “binds” in each case.

B5: GST-conjugated ICE-Like (protein, not shown: a dimerising Fc or GST)
chain: MADQLLRKKRRIFIHSVGAGTINALLDCLLEDEVISQEDMNKVRDENDTVMDKARVLIDLVTGKGPKSCCKFIKHLCEEDPQLASKMGLH
Turning to B5, the binding result with ICE-Like (human) and with Pseudo-ICE (human) was “binds” in each case.
